Results reported in the odorant receptor screen of Mainland et al. (2015).
Values joined by “and” are separate entries in the source; they are usually repeats but may differ in a detail not shown here. Equal entries are not always repeated. This is one part of the list. Single wells; the ratio to wells without odorant was worked out here, and repeats agree poorly.

Legend:
Test in all cases: odorant receptor activation (CRE luciferase / Renilla) (fold of no-odor wells); higher = more activation
Settings in all cases: 100 µM
OR1D5 clone 1692 = test system: OR1D5 clone 1692
OR1E1 clone 1257 = test system: OR1E1 clone 1257
OR1E1 clone 1546 = test system: OR1E1 clone 1546
OR1E2 C27R clone 1447 = test system: OR1E2 C27R clone 1447
OR1E2 clone 1517 = test system: OR1E2 clone 1517
OR1F1 F75S clone 1281 = test system: OR1F1 F75S clone 1281
OR1F12 clone 1694 = test system: OR1F12 clone 1694
OR1G1 clone 1488 = test system: OR1G1 clone 1488
[1] = test system: OR1I1 P139R/Y252S clone 1468
OR1J1 clone 1696 = test system: OR1J1 clone 1696

| Structure (SMILES) | odorant receptor activation (OR1D5 clone 1692) | odorant receptor activation (OR1E1 clone 1257) | odorant receptor activation (OR1E1 clone 1546) | odorant receptor activation (OR1E2 C27R clone 1447) | odorant receptor activation (OR1E2 clone 1517) | odorant receptor activation (OR1F1 F75S clone 1281) | odorant receptor activation (OR1F12 clone 1694) | odorant receptor activation (OR1G1 clone 1488) | odorant receptor activation [1] | odorant receptor activation (OR1J1 clone 1696) |
| --- | --- | --- | --- | --- | --- | --- | --- | --- | --- | --- |
| CC/C=C\CCO [cis-3-hexen-1-ol] | 1.04 | 0.97 | 0.721 | 0.143 | 0.989 | 1.24 | 1.13 | 0.877 | 1.18 | 1.26 |
| CCCCCCCC=O [octyl aldehyde] | 0.75 | 1.07 | 0.739 | 0.806 | 1.64 | 1 | 0.746 | 1.1 | 1.04 | 0.762 |
| CC(C)CCC(=O)O [4-methylvaleric acid] | 0.921 | 1.26 | 1.17 | 0.917 | 1.21 | 0.933 | 0.825 | 0.922 | 0.929 | 0.924 |
| O=C1CCCCCCCCCCCC(=O)OCCO1 [ethylene brassylate] | 0.929 | 1.58 | 1.22 | 1.84 | 1.48 | 1.5 | 0.675 | 0.945 | 1.57 | 0.874 |
| CCCC(=O)O [butyric acid] | 0.838 | 0.99 | 0.773 | 0.148 | 1.34 | 1.03 | 1.16 | 1.08 | 1.13 | 1.03 |
| CC(=O)OCC=C(C)CCC=C(C)C [geranyl acetate] | 1.45 | 0.864 and 1.17 | 1.11 and 1.55 | 0.982 | 0.758 and 1.49 | 0.992 and 1.28 | 1.25 | 1.01 and 1.67 | 1.02 and 1.62 | 1.13 |
| c1ccc(Oc2ccccc2)cc1 [diphenyl ether] | 0.791 | 1.07 | 1.41 | 0.879 | 1.33 | 0.897 | 0.687 | 0.898 | 1.05 | 0.687 |
| CCCCCCCCC=O [nonyl aldehyde] | 0.693 | 0.93 | 0.828 | 1.3 | 0.991 | 1 | 0.909 | 1.3 | 0.887 | 0.725 |
| CCC1(O)C2(C)CCC(C2)C1(C)C (stereo not given) [2-ethylfenchol] | 0.9 | 1.49 | 1.1 | 0.861 | 1.16 | 0.7 | 0.847 | 1.22 | 1.47 | 0.995 |
| CCCCO [1-butanol] | 1.06 | 1.52 | 1.24 | 0.795 | 1.14 | 0.613 | 0.9 | 1.32 | 1.03 | 0.938 |
| O=CCc1ccccc1 [phenyl acetaldehyde] | 1.66 | 1.61 | 1.19 | 1.3 | 0.996 | 1.2 | 1.93 | 1.47 | 1.49 | 1.69 |
| c1cnccn1 [pyrazine] | 0.677 | 0.833 | 1.06 | 0.845 | 0.797 | 0.825 | 0.824 | 0.848 | 0.951 | 1.01 |
| CC1CCC(C(C)C)C(O)C1 (single isomer, unassigned; (+)) [(+)-menthol] | 0.783 | 0.974 | 1.25 | 0.858 | 1.18 | 0.613 | 0.845 | 1.34 | 1.23 | 0.886 |
| CC(C)CC(=O)O [isovaleric acid] | 0.812 | 0.836 | 0.749 | 0.921 | 0.891 | 0.914 | 1.06 | 1.04 | 0.866 | 0.794 |
| CCCCCCCCCCC=O [undecanal] | 0.55 | 0.972 | 0.955 | 0.952 | 1.23 | 0.885 | 0.937 | 1.06 | 0.969 | 1.01 |
| CC12CCC(C1)C(C)(C)C2=O (stereo not given) [fenchone] | 0.868 | 0.942 | 1.06 | 0.864 | 1.19 | 0.891 | 0.695 | 0.885 | 0.934 | 0.739 |
| COc1ccccc1O [guaiacol] | 0.954 | 1.11 and 0.981 | 1.13 and 1.4 | 0.845 | 0.679 and 0.936 | 1.21 and 0.86 | 0.692 | 1.03 and 1.42 | 0.781 and 1.25 | 0.764 |
| CCCCCC(=O)O [caproic acid] | 0.831 | 0.818 | 0.687 | 0.125 | 0.969 | 1.07 | 0.917 | 0.827 | 1.29 | 0.943 |
| COc1cc(C=O)ccc1O [vanillin] | 0.822 | 0.925 | 0.83 | 0.838 | 0.847 | 1 | 0.594 | 1.04 | 1.2 | 0.796 |
| COc1cc(C)ccc1O [2-methoxy-4-methylphenol] | 1.03 | 1.04 | 1.07 | 1.03 | 0.992 | 0.727 | 0.864 | 0.721 | 0.89 | 0.882 |
| CC(C)C=O [isobutyraldehyde] | 0.865 | 0.969 and 1.15 | 1.02 and 1.18 | 0.851 | 0.759 and 1.19 | 0.915 and 0.876 | 1.04 | 1.04 and 1.06 | 0.843 and 0.985 | 0.946 |
| CC1=CCC(C(C)(C)O)CC1 (stereo not given) [terpineol] | 0.621 | 1.11 | 1.01 | 0.898 | 0.804 | 1.04 | 0.861 | 0.744 | 0.715 | 1.12 |
| CC(C)=CCCC(C)=CC=O [citral] | 1.16 | 1.12 | 0.776 | 0.14 | 0.911 | 1.4 | 0.011 | 0.999 | 1.28 | 1.21 |
| C=CCc1ccc(OC)c(OC)c1 [eugenol methyl ether] | 0.889 | 1.57 | 1.52 | 1.34 | 1.54 | 1.28 | 0.64 | 1.08 | 1.36 | 0.699 |
| CC(C)C(=O)O [isobutyric acid] | 0.758 | 1.09 and 1.04 | 1.05 and 0.919 | 0.774 | 0.912 and 0.963 | 1.1 and 0.856 | 1.09 | 1 and 0.891 | 1.01 and 1.13 | 0.851 |
| C=C(C)C1CC=C(C)C(=O)C1 (stereo not given) [r-carvone] | 0.718 | 1.16 | 0.905 | 0.942 | 0.867 | 0.671 | 0.787 | 0.841 | 1.04 | 0.932 |
| CCCCCCCC=CC=O [2-decenal] | 1.21 | 2.46 | 1.42 | 1.15 | 2.27 | 0.943 | 1.16 | 2.04 | 2.81 | 1.1 |
| CC1CCC(C(C)C)C(O)C1 (single isomer, unassigned; (-)) [(-)-menthol] | 0.89 | 0.982 | 1.36 | 1.02 | 4.74 | 0.692 | 0.908 | 2.64 | 4.98 | 0.837 |

Two records drawn at random from those above, as already listed:

| Structure (SMILES) | odorant receptor activation (OR1D5 clone 1692) | odorant receptor activation (OR1E1 clone 1257) | odorant receptor activation (OR1E1 clone 1546) | odorant receptor activation (OR1E2 C27R clone 1447) | odorant receptor activation (OR1E2 clone 1517) | odorant receptor activation (OR1F1 F75S clone 1281) | odorant receptor activation (OR1F12 clone 1694) | odorant receptor activation (OR1G1 clone 1488) | odorant receptor activation [1] | odorant receptor activation (OR1J1 clone 1696) |
| --- | --- | --- | --- | --- | --- | --- | --- | --- | --- | --- |
| COc1cc(C=O)ccc1O [vanillin] | 0.822 | 0.925 | 0.83 | 0.838 | 0.847 | 1 | 0.594 | 1.04 | 1.2 | 0.796 |
| CC12CCC(C1)C(C)(C)C2=O (stereo not given) [fenchone] | 0.868 | 0.942 | 1.06 | 0.864 | 1.19 | 0.891 | 0.695 | 0.885 | 0.934 | 0.739 |
